Test results reported in PubChem BioAssay AID1347423 (Functional Genomics Laboratory (NCATS/FGL), 2020).
Screen size: about 52,000 sequences; about 210 (0.4%) were called active.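 The calls were made as follows: active = gene whose silencing raises cell survival under the drug, median off-target-corrected z-score across its silencing RNAs 2 or more; inactive = the rest.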 This is one part of the list.

assay: Resistance to Poly (ADP-Ribose) Polymerase inhibitor: Gene Identification via Genome-wide siRNA Screen; conditions: mouse BRCA2 R2336H ES cells, olaparib, CellTiter-Glo viability; stronger effect = higher value
Summary of the method: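 Mouse BRCA2 R2336H ES cells were reverse-transfected with siRNA (20 nM final), treated at 48 h with 500 nM olaparib, and read by CellTiter-Glo after 72 h. Scores: MAD-based z per siRNA, median per gene, seed off-target correction.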

Q: With “GGAAGAGAAUAGAUCCUAUTT against 2410081M15Rik” as the sequence, how does the z-score read?
A: inactive: 2

Q: For CGACAUGUAAAACUAUUGUTT against BC034097, which z-score is on record?
A: active: 0.0442

Q: Which z-score does the source give for “GCAGCAAUGGUUUAACACCTT against 1110003E01Rik” here?
A: inactive: 1.36

Q: Which z-score does the source give for GGCAUUAAAGACCUGUUAATT against Kpnb1 here?
A: inactive: 0.672

Q: Which z-score does the source give for GGAAUGUGAAGGAUGUUCUTT against Nhlh1 here?
A: inactive: -1.83

Q: With GCGAGUAGAAUUCUUUAACTT against Tnrc11 as the sequence, how does the z-score read?
A: inactive: 0.795

Q: Which z-score does the source give for GCUUUUACAAUUCAGGCAGTT against Naalad2 here?
A: inactive: 0.34

Q: Which z-score does the source give for GGACAGACUGUGAUUCCUCTT against Bscl2 here?
A: inactive: -0.578

Q: With “GGCUUUGUAUCAUCAUCAUTT against 4632428N05Rik” as the sequence, how does the z-score read?
A: inactive: 0.83

Q: With “CCUCGUUCCUGAUAACCAUTT against 0610010K14Rik” as the sequence, how does the z-score read?
A: inactive: -0.473

Q: With GGAUCAUUUGUUAAUGUACTT against Ddx3y as the sequence, how does the z-score read?
A: inactive: 0.432

Q: With GGAGAUGUGUUGAGUUUUCTT against Abcg2 as the sequence, how does the z-score read?
A: inactive: -0.0939

Q: For “GGUAGAUAUCCUUGAGUACTT against 3300001H21Rik”, which z-score is on record?
A: inactive: -1.66

Q: With GGACCGUCUGUCCUUUGUCTT against Pvrl2 as the sequence, how does the z-score read?
A: inactive: 0.0366

Q: Which z-score does the source give for GGACAUAAUCAAAUACAACTT against Eif3s3 here?
A: inactive: -1.88

Q: With “CCAUUCUAGCUGGUUCGAATT against D12Ertd647e” as the sequence, how does the z-score read?
A: inactive: -0.025

Q: For GUCAGAUGCUGUAAGAUAATT against Defb4, which z-score is on record?
A: inactive: 1.27

Q: With CCUCAGUAUCUGUUUUCCGTT against Gnat2 as the sequence, how does the z-score read?
A: inactive: 1.22

Q: Which z-score does the source give for GGAAGUCCAACUUCUUCCATT against Ebf4 here?
A: inactive: 0.771

Q: Which z-score does the source give for GCCUGACCACCAACUUAUATT against Mast1 here?
A: inactive: 1.16

Q: Which z-score does the source give for GGAGGAAAUAUGUUAACUATT against Atp6ap2 here?
A: inactive: -0.701

Q: Which z-score does the source give for GGUCCUGGACAAGAGCAGUTT against Bcl11b here?
A: inactive: -1.3

Q: With GCCUGGUGUUGUGCUAUUUTT against Atf3 as the sequence, how does the z-score read?
A: inactive: -0.662

Q: With GGAUGAUGAGAGAAACAAATT against Jak1 as the sequence, how does the z-score read?
A: active: 2.1

Q: Which z-score does the source give for GGAUGUGUAGUGCAAUUACTT against Olfr993 here?
A: inactive: -0.246

Q: Which z-score does the source give for GGGCCUCCAUCCUACUAUGTT against Grina here?
A: inactive: -0.361

Q: With GGUUUUACCCGGUAAGUCCTT against Bcan as the sequence, how does the z-score read?
A: inactive: 1.11

Q: Which z-score does the source give for GGUAGACAUUCCUAAGCCCTT against Ddx21 here?
A: inactive: -0.207

Q: With GAUCAAAGAAACUCCUCCCTT against Zfp50 as the sequence, how does the z-score read?
A: inactive: 0.591

Q: For GGCUCUGUGACCAAGAUUUTT against Rtcd1, which z-score is on record?
A: inactive: 1.14

Q: For CGAAGUGAGAAUUGAAUUUTT against Zp2, which z-score is on record?
A: inactive: 0.791

Q: For GGUGACGGCUACACUUUUCTT against Adrbk2, which z-score is on record?
A: inactive: 2.24

Q: For GGAUUCAUUUUGUGAGUGATT against Pax8, which z-score is on record?
A: inactive: 0.531

Q: For “GGAGGGCUCACAUUGUACATT against D130011D22Rik”, which z-score is on record?
A: inactive: -0.484

Q: Which z-score does the source give for GGGUCAAAGCAGAAAAAUCTT against S100a18 here?
A: inactive: -0.308

Q: Which z-score does the source give for GCUCAAGUCGAAAAGUUGCTT against Gpc4 here?
A: inactive: -0.138

Q: With “UCCAUUUCGACCCUUGUACTT against 2010100O12Rik” as the sequence, how does the z-score read?
A: inactive: -0.516

Q: Which z-score does the source give for GGAGAAGCAUUAUUUUGAATT against Myb here?
A: inactive: -0.653

Q: With CCAUUGCAUGCAAUGACUATT against S100a10 as the sequence, how does the z-score read?
A: inactive: -0.647

Q: With GGCCUUGAGGCUAUUCAUGTT against Stk16 as the sequence, how does the z-score read?
A: inactive: 0.0229

Q: For GGAGAAAAGGAAGUAAACUTT against Aldh9a1, which z-score is on record?
A: inactive: 2.32

Q: Which z-score does the source give for CGACAAACACCGUAGCAAATT against Mkl2 here?
A: inactive: 2.27

Q: For GGAGGAAGAAGUAGUACUUTT against Nup43, which z-score is on record?
A: inactive: -0.855

Q: With GGAGAUCCUUCAUUACCUGTT against Psap as the sequence, how does the z-score read?
A: inactive: -0.239

Q: Which z-score does the source give for CCUACCAGUACCUAGAACUTT against Slc5a5 here?
A: inactive: -0.472

Q: Which z-score does the source give for GCCAAUGAGACUAAAUACGTT against Abca17 here?
A: inactive: -0.628

Q: For CCAAACCUGAGACCUAUUGTT against Lamb3, which z-score is on record?
A: inactive: -0.652

Q: Which z-score does the source give for “CGACUAUAGACUCUUGAAUTT against 1810037I17Rik” here?
A: inactive: -0.75

Q: Which z-score does the source give for “GCUAAUCUGAGAAACAGGCTT against 2310002B06Rik” here?
A: inactive: -0.161

Q: With AGAGCAAAAACUCGAGCACTT against Sox15 as the sequence, how does the z-score read?
A: inactive: 1.28

Q: Which z-score does the source give for “GCGAAUUGAGCUCAAACAUTT against 5830435K17Rik” here?
A: inactive: 2.38

Q: Which z-score does the source give for GGUGACGAGACAUUUAUUATT against Elovl5 here?
A: inactive: 0.954

Q: Which z-score does the source give for CCAAUCUUCACAAUGGCUCTT against Smpd1 here?
A: inactive: 2.9

Q: Which z-score does the source give for CGCAGCAUUGUUAGAUAUUTT against Adss2 here?
A: inactive: -0.471

Q: Which z-score does the source give for “GGGAGGAGUCAUUCAUGAGTT against D11Ertd636e” here?
A: inactive: 1.07

Q: For GGAAAUAAUGACCAAGUACTT against Gprk5, which z-score is on record?
A: inactive: -1.61

Q: With “GCUUGUAAAUGGAACGACATT against 0610012G03Rik” as the sequence, how does the z-score read?
A: inactive: 0.781

Q: Which z-score does the source give for GGGUUCAUUUCUCAAAAUUTT against Nol7 here?
A: inactive: 1.09

Q: With GGGCAAAUUAUGCUGUCAUTT against Tomm20 as the sequence, how does the z-score read?
A: inactive: -0.851

Q: For “CCAGUCUACAACUGUUCCUTT against E230022H04Rik”, which z-score is on record?
A: inactive: -1.28

Q: With GGCAUAAUGUGAAAAAAUGTT against P2ry10 as the sequence, how does the z-score read?
A: inactive: 0.836

Q: With “GCAAUAGCAUACCUACCAUTT against 5830417C01Rik” as the sequence, how does the z-score read?
A: inactive: -0.113

Q: For GGUGGUUUUGAGAAUUAACTT against Hist1h1d, which z-score is on record?
A: inactive: 0.716

Q: With GGGUUUCAAUGGCACAAUUTT against Kif3b as the sequence, how does the z-score read?
A: inactive: 1.33

Q: For GGUGCGUUAUGGGUUUGUUTT against Ppm1b, which z-score is on record?
A: inactive: -1.01

Q: Which z-score does the source give for GCUAAGCUAAAUUAAAUGCTT against Rp2h here?
A: inactive: 0.487

Q: For GGACAUUUUCUACGUUGAATT against Phax, which z-score is on record?
A: inactive: -2.15
